The supplement of paper PMC3047530
± gives the standard deviation of the averaged measurements. The list shows a part of the results. Many values rest on one well or one pass, so single values are uncertain.

tested on: Geomyces destructans; assay: growth inhibition relative to DMSO control; higher = stronger growth inhibition; conditions: 10 µM; 15 °C; incubation time 10 days

Structure (SMILES) | growth inhibition [%]
NNC(=O)c1ccncc1 | 7.57
O=C(O)c1cc2cc(F)ccc2[nH]1 | -3.12
CCN1CCCC1CNC(=O)c1cc(S(N)(=O)=O)ccc1OC (configuration not stated) | -10.2
O=c1cccc2ccc(O)c(O)c2c1O | -18
Cc1cccc(N(C)C(=S)Oc2ccc3ccccc3c2)c1 | -24.2
O=C(O)c1cccnc1 | -1.55
CCCCc1oc2ccccc2c1C(=O)c1cc(I)c(OCCN(CC)CC)c(I)c1 | 73.1
O=C(Nc1ccc([N+](=O)[O-])cc1Cl)c1cc(Cl)ccc1O | -6.7
CCOc1ccc(Cc2nccc3cc(OCC)c(OCC)cc23)cc1OCC | -8.37
C#C[C@]1(O)CC[C@H]2[C@@H]3CCC4=Cc5oncc5C[C@]4(C)[C@H]3CC[C@@]21C | -15.7
CC12CC3CC(C)(C1)CC(N)(C3)C2 | -38.8
CC(C)=CCc1c(O)cc2oc(C)cc(=O)c2c1O | -22.3
CCC[C@@H]1C[C@@H](C(=O)N[C@@H]([C@H]2O[C@H](SC)[C@H](O)[C@@H](O)[C@H]2O)[C@@H](C)O)N(C)C1 | 1.77
C=C1C(N)CC2CC1C2(C)C (stereo not drawn) [3-AMINO-beta-PINENE] | 0.285
CN1CCCN=C1/C=C/c1cccs1 | -14
CC(C)(C)CC(C)(C)c1ccc(OCCOCC[N+](C)(C)Cc2ccccc2)cc1 | 78.6
COc1ccc(CCC(=O)c2c(O)cc(O[C@@H]3O[C@H](CO)[C@@H](O)[C@H](O)[C@H]3O[C@@H]3O[C@@H](C)[C@H](O)[C@@H](O)[C@H]3O)cc2O)cc1O | -1.93
CCCCOc1ccc(C(=O)CCN2CCCCC2)cc1 | -0.422
COc1cccc(O)c1O | -9.39
Nc1nc(N)c2nc(-c3ccccc3)c(N)nc2n1 | -21.4
C=C1CC[C@H](O)C/C1=C/C=C1\CCC[C@]2(C)[C@@H]([C@H](C)/C=C/[C@H](C)C(C)C)CC[C@@H]12 | 6.96
CC(C)=CCCC1(C)C=Cc2c(O)c3c(c(CC=C(C)C)c2O1)OC12C(=CCCC1C(C)(C)O[C@@]2(C/C=C(\C)C(=O)O)C(=O)O)C3=O (some centres not stated) | -13
C=CC1=C(C)/C(=C/c2[nH]c(Cc3[nH]c(/C=C4\NC(=O)C(C)=C4C=C)c(C)c3CCC(=O)O)c(CCC(=O)O)c2C)NC1=O | -7.61
O=C(O)c1cc(O)ccc1O | -7.25
C[C@H]1[C@H]2CC[C@H]3[C@@H]4CC=C5C[C@@H](N(C)C)CC[C@]5(C)[C@H]4CC[C@]23CN1C | -16.6

Structure (SMILES) | growth inhibition [%]
CC(CN(C)C)CN1c2ccccc2CCc2ccccc21 (configuration not stated) | -7.71
COC(=O)[C@H]1[C@H]2C[C@H]3c4[nH]c5ccccc5c4CCN3C[C@H]2CC[C@@H]1O | -15.4
C[C@@H]([C@H]1OC(C)(C)[C@@H](O)[C@H]1O)[C@@H]1CC[C@]2(C)C3=CC[C@H]4C(C)(C)C(=O)CC[C@]4(C)[C@H]3CC[C@@]12C | -10.6
CC(C)=CCC[C@@H](C)[C@@H]1CC[C@]2(C)C3=C(CC[C@@]12C)[C@@]1(C)CC[C@H](O)C(C)(C)[C@@H]1CC3 | 1.81
CC(C)NCC(O)COc1cccc2[nH]ccc12 (configuration not stated) | -3.2
OC(CCN1CCCC1)(c1ccccc1)C1CCCCC1 (configuration not stated) | -9.96
CN(Cc1cc(Br)cc(Br)c1N)C1CCCCC1 | -3.47
C[C@H](CS)C(=O)N1CCC[C@H]1C(=O)O | 8.75
CC1(C)O[C@@H]2C[C@H]3[C@@H]4C[C@H](F)C5=CC(=O)C=C[C@]5(C)[C@H]4[C@@H](O)C[C@]3(C)[C@]2(C(=O)CO)O1 | -9.1
COc1ccc2c(=O)cc(-c3ccccc3OC)oc2c1 | -6.57
COC(=O)[C@@]1(C)CCC[C@]2(C)c3ccc(O)c(C(C)C)c3CCC12 (some centres not stated) | -11.1
COC(=O)/C(C)=C\CC12OC(C)(C)C3CC(C=C4C(=O)c5c(O)c6c(c(CCC(C)(C)Cl)c5OC431)OC1(C)CCC(=C(C)C)C6C1)C2=O (configuration not stated) | -11.8
CC(C)c1c(O)ccc2c1CCC1[C@@](C)(C=O)CCC[C@]21C (some centres not stated) | -12.2
COc1ccc(-c2cc(=O)c3c(OC)cc(OC)cc3o2)cc1 | -21.8
NCCc1ccc(O)c(O)c1 | 0.206
CC[C@H](c1ccc(O)cc1)[C@@H](CC)c1ccc(O)cc1 | -30.1
C[C@]12CCC(=O)C=C1CC[C@@H]1[C@@H]2[C@@H](O)C[C@@]2(C)[C@H]1CC[C@]2(O)C(=O)COP(=O)(O)O | -4.65
CC(=O)OCC(=O)[C@@]1(O)CC[C@H]2[C@@H]3CCC4=CC(=O)C=C[C@]4(C)[C@H]3[C@@H](O)C[C@@]21C | -17.3
C/C=C(\C)C(=O)O[C@@H]1c2c(ccc3ccc(=O)oc23)OC(C)(C)[C@@H]1OC(C)=O | -8.69
CC(C)CCC[C@@H](C)[C@H]1CC[C@H]2[C@@H]3C[C@@H](O)[C@@]4(O)C[C@@H](O)CC[C@]4(C)[C@H]3CC[C@]12C [CHOLESTAN-3beta,5alpha,6beta-TRIOL] | -3.24 ± 7.5
C=C1CCC2C(CC2(C)C)C(=O)CCC1O (configuration not stated) | -14.7
NC(CO)C(=O)NNCc1ccc(O)c(O)c1O (configuration not stated) | -28.6
C[C@H]1COc2c(N3CCN(C)CC3)c(F)cc3c(=O)c(C(=O)O)cn1c23 | -24.2
CN(C)CCCN1c2ccccc2CCc2ccccc21 | -0.678
Cc1cc(O)c2c(c1)C(=O)c1cc(O)cc(O)c1C2=O | 4.82

Structure (SMILES) | growth inhibition [%]
CN1CCC(OC(c2ccccc2)c2ccccc2)CC1 | -3.88
COc1cccc(-c2cc(=O)c3ccc(OC)cc3o2)c1 | -39.8
C[N+](C)(C)CCO.[Cl-] | -3.71
CC(C)=CCOc1cc2oc(=O)ccc2cc1O | -8.86
CC(=O)O[C@@](C)(CCC=C(C)C)C1CC=C(C)CC1 (some centres not stated) | -3.05
NCC[C@H](O)C(=O)N[C@@H]1C[C@H](N)[C@@H](O[C@H]2O[C@H](CN)[C@@H](O)[C@H](O)[C@H]2O)[C@H](O)[C@H]1O[C@H]1O[C@H](CO)[C@@H](O)[C@H](N)[C@H]1O | -31.1
COc1ccc2c(c1)OC[C@@H](Cc1ccc(OC)c(OC)c1)[C@H]2O | 3.4
Cn1cnc([N+](=O)[O-])c1Sc1ncnc2[nH]cnc12 | -21.4
CC(C)C(=O)Nc1ccc([N+](=O)[O-])c(C(F)(F)F)c1 | -8.04
OCCN1C[C@H](O)[C@@H](O)[C@H](O)[C@H]1CO | -39.8
CC(=O)O[C@@H]1CC2C(C)(C)C(=O)CC[C@]2(C)C2CC[C@]3(C)C(=CC(=O)O[C@H]3c3ccoc3)[C@@]21C (some centres not stated) | -2.22
CC(=O)O[C@H]1C[C@@H](OC(C)=O)C(C)(C)C2CC(=O)[C@]3(C)C(CC[C@@]4(C)[C@H](c5ccoc5)OC(=O)[C@H]5O[C@]543)[C@]21C (some centres not stated) | 4.26
O=C(O)c1nc2cc(Cl)c(Cl)cc2nc1O | -27.2
CC(=O)OCC[N+](C)(C)C | -5.15
CC(=O)Oc1ccc(O)cc1 | -7.05
C[C@H](CCC(=O)O)[C@H]1CC[C@H]2[C@@H]3CC[C@@H]4C[C@H](O)CC[C@]4(C)[C@H]3CC[C@]12C | -6.67
CC1COc2c(N3CCN(C)CC3)c(F)cc3c(=O)c(C(=O)O)cn1c23 (configuration not stated) | -3.02
O=C(O)CCCC[C@@H]1SC[C@@H]2NC(=O)N[C@@H]21 | -9.44
Cc1coc2ccccc2c1=O | -15.7
COc1cc(C)c2c(=O)c3c(O)cc(O)cc3oc2c1 | -3.7
COc1ccc2c(c1)O[C@H]1c3ccc(OC)cc3OC[C@@H]21 | 1.81
Fc1ccc(C(c2ccccc2)(c2ccccc2F)n2ccnc2)cc1 (configuration not stated) | -7.2
CC(C)NCC(O)c1cc(O)cc(O)c1 (configuration not stated) | 1.61
CCN(CC)Cc1cc(Nc2ccnc3cc(Cl)ccc23)ccc1O | -31.9
O=C(/C=C/C=C/c1ccc2c(c1)OCO2)N1CCCCC1 | -15.7

Structures from the list above that contain an NH in an aromatic ring (five):
Structure (SMILES) | growth inhibition [%]
O=C(O)c1cc2cc(F)ccc2[nH]1 | -3.12
C=CC1=C(C)/C(=C/c2[nH]c(Cc3[nH]c(/C=C4\NC(=O)C(C)=C4C=C)c(C)c3CCC(=O)O)c(CCC(=O)O)c2C)NC1=O | -7.61
COC(=O)[C@H]1[C@H]2C[C@H]3c4[nH]c5ccccc5c4CCN3C[C@H]2CC[C@@H]1O | -15.4
CC(C)NCC(O)COc1cccc2[nH]ccc12 (configuration not stated) | -3.2
Cn1cnc([N+](=O)[O-])c1Sc1ncnc2[nH]cnc12 | -21.4

(more compounds)

Structure (SMILES) | growth inhibition [%]
CCC(=O)OCC(=O)[C@@]1(OC(=O)CC)[C@@H](C)C[C@H]2[C@@H]3CCC4=CC(=O)C=C[C@]4(C)[C@@]3(Cl)[C@@H](O)C[C@@]21C | -34
C=C(C)/C=C1/C=CC(=O)C(C)=C1 | -11.4
OC[C@H]1O[C@@](CO)(O[C@H]2O[C@H](CO)[C@@H](O)[C@H](O)[C@H]2O)[C@@H](O[C@H]2O[C@H](CO)[C@@H](O)[C@H](O)[C@H]2O)[C@@H]1O | -16.5
NCCCC[C@H](NC(=O)[C@H](Cc1ccc(O)cc1)NC(=O)[C@@H](N)CCCCN)C(=O)O | -29.4
COc1ccccc1N1CCN(CCCNc2cc(=O)n(C)c(=O)n2C)CC1 | 23.7
CC(C)CCCC(C)C1CCC2C3CCC4CC(O)CCC4(C)C3CCC12C (configuration not stated) | -2.93
O=C1CCC(N2C(=O)c3ccccc3C2=O)C(=O)N1 (configuration not stated) | -35.9
CC1(C)C[C@@H]2C(=O)CC[C@H]3O[C@]3(C)CC[C@H]21 | -5.26
COc1c(O)cc2oc3cc(O)c(CC=C(C)C)c(O)c3c(=O)c2c1CC=C(C)C [alpha-MANGOSTIN] | 18.7
CCOC(=O)C1(O)Oc2cc(OC)cc(OC)c2C(=O)C1c1ccccc1 (configuration not stated) | -17.8
COC(=O)C[C@H]1C(C)(C)[C@@H](OC(C)=O)[C@@H]2CC3C4CC(=O)O[C@@H](c5ccoc5)[C@]4(C)CCC3[C@@]1(C)C2=O (some centres not stated) | -8.86
CC1(C)S[C@@H]2[C@H](NC(=O)Cc3ccccc3)C(=O)N2[C@H]1C(=O)O | -26.7
CCCCc1nc(Cl)c(CO)n1Cc1ccc(-c2ccccc2-c2nnn[nH]2)cc1 | -28.6
CCN(CC)CCNC(=O)COc1ccc(OC)cc1 | -12
CC(=O)OCC1=C(C(=O)O)N2C(=O)[C@@H](NC(=O)Cc3cccs3)[C@H]2SC1 | -1.52
CC(N)C(=O)OC(C)(C)Cc1ccc(Cl)cc1 (configuration not stated) | -42.3
Cc1cccc(Nc2ccccc2C(=O)O)c1C | -2.9
CNCCCN1c2ccccc2CCc2ccccc21 | -3.41
O=C(O)[C@]1(O)C[C@@H](O)[C@@H](O)[C@H](O)C1 | -2.02
CC[n+]1c(-c2ccccc2)c2cc(N)ccc2c2ccc(N)cc21 | 70.2
C[n+]1ccccc1C=NO | -6.3
O=c1c2ccccc2oc2ccc(O)cc12 | 0.751
